These are yes or no findings as the source states them, for the method shown. Binding seen in cells or lysates may run through a third protein. Binding calls can cover weak binding; strength is not graded here.
Target: endogenous EGFR of H1975 cells (EGFR mutant) (human (endogenous in H1975)) (UniProt P00533)
Experiment: co-IP; lysates of untransfected A549 and H1975 cells immunoprecipitated with anti-α5 or anti-EGFR antibodies, western blot; A549 also after 8 h serum starvation and 1 h EGF or nicotine, which enhanced the association

Protein sequences, listed by entry. Tags and fused reporters are not part of them. Residues count along the entry.
UniProt P30532, residues 23-468: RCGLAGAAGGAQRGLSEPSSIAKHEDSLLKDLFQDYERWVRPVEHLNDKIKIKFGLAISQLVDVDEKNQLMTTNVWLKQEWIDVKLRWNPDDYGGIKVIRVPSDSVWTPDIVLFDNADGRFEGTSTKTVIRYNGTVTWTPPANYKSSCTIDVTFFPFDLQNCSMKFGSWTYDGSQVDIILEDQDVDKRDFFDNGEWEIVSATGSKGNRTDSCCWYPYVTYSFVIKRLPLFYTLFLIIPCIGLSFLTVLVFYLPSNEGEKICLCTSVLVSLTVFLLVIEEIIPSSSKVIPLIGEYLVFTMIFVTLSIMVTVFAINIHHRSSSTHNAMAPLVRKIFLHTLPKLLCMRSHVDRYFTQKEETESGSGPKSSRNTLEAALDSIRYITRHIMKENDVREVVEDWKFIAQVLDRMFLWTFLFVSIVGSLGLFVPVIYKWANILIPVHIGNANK

binding: binds
Substance: endogenous α5-nAChR (nicotinic acetylcholine receptor subunit α5) (from UniProt P30532 23-468)
